For part of its entries the source gives two or more results. The list is limited to them. The source may hold further records. Values given together differ for a reason that is not stated; some may be repeats, others may stem from another dose, organism or construct than stated.
Experiment: Aqueous solubility
Format: physicochemical
Conditions: buffer pH 2.2, 24 h shaking, 2.5% DMSO
Method: Starting from a 10 mM DMSO stock solution aliquots are diluted with acetonitrile/water (1/1) or buffer, respectively. After 24 h of shaking, the solutions are filtrated and analyzed by LC-UV. The amount dissolved in buffer is compared to the amount in the acetonitrile solution.

Cc1cc(-c2nnn(C)n2)cc(C)c1-c1ccc(F)c2c1CC[C@H]2Nc1ccc([C@H]2C[C@@H]2C(=O)O)nc1 [Example 30]
Solubility at pH value 2.2: 99 μg/mL and Solubility (pH 2.2) = 99 μg/mL

Reference: patent US10125101B2, “Indanylaminopyridylcyclopropanecarboxylic acids, pharmaceutical compositions and uses thereof” (Boehringer Ingelheim International GmbH, priority 2016, dated 2018)
